Reference: patent US20100095387A1, “METHODS AND REAGENTS FOR SCREENING NEW DRUGS AND FOR TREATING ION PUMP ASSOCIATED DISORDERS AND DISEASES” (priority 2005, published 2010)
Results are given in words; binding and its absence hold for the method and conditions named. Some results given as binding are weak or reduced against the parent protein; the word gives no strength.

Amino acid sequences for entries named in this document (tags omitted). A change or cut given only in a name is not applied to a line headed by its entry. Chains listed by the source or under a name are the forms on record and can include a tag or linker.
UniProt A2ASQ1: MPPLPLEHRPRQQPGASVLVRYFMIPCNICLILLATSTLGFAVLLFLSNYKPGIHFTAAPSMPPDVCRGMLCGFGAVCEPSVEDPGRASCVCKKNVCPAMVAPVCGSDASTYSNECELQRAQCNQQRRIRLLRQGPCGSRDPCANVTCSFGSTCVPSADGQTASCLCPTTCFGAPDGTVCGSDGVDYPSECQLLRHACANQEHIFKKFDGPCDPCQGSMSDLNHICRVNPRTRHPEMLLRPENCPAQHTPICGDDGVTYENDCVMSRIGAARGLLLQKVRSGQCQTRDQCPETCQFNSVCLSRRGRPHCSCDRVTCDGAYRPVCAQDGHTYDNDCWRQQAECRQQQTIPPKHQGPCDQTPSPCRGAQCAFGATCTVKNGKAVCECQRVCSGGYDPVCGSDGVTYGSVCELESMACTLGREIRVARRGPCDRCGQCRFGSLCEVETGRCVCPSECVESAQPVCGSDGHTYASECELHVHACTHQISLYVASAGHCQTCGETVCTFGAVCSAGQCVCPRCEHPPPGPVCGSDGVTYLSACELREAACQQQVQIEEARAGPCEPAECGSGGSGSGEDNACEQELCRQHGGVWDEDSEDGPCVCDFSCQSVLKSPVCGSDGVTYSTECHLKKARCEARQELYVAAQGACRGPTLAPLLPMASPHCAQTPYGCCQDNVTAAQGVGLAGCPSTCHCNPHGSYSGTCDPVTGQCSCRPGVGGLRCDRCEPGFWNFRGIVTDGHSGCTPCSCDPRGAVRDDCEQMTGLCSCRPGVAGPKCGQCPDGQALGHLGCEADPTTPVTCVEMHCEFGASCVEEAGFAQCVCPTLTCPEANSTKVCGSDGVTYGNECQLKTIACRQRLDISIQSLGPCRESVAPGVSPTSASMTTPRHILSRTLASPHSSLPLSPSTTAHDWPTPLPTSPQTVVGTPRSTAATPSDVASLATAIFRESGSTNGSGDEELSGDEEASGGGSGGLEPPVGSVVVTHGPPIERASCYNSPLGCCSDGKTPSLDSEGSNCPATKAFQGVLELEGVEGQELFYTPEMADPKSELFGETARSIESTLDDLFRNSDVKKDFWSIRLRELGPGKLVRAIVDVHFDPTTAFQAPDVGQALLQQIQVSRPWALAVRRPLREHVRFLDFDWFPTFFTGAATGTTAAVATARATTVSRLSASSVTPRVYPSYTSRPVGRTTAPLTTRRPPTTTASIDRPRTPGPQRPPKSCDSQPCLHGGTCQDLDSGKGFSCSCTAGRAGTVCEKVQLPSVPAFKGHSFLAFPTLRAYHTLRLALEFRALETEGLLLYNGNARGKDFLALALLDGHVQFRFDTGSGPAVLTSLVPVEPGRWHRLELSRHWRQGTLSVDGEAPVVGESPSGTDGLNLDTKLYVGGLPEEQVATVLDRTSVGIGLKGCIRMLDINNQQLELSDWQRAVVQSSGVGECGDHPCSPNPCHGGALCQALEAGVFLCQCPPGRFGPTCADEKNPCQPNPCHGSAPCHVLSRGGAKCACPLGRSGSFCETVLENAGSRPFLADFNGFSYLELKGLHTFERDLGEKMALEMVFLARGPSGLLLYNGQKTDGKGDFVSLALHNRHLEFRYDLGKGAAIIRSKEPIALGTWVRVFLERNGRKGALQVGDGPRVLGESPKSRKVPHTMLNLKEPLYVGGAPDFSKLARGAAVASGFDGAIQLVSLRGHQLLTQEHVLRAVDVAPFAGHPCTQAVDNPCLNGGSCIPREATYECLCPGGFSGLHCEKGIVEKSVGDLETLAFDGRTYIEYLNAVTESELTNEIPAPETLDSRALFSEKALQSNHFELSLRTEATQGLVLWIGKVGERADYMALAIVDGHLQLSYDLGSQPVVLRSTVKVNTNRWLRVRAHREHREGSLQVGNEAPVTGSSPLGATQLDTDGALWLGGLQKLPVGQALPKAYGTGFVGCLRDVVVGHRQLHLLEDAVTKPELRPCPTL
rC-Agy4z8, soluble 95-kD COOH-terminal fragment of rat agrin, y4 z8 (P25304, form named): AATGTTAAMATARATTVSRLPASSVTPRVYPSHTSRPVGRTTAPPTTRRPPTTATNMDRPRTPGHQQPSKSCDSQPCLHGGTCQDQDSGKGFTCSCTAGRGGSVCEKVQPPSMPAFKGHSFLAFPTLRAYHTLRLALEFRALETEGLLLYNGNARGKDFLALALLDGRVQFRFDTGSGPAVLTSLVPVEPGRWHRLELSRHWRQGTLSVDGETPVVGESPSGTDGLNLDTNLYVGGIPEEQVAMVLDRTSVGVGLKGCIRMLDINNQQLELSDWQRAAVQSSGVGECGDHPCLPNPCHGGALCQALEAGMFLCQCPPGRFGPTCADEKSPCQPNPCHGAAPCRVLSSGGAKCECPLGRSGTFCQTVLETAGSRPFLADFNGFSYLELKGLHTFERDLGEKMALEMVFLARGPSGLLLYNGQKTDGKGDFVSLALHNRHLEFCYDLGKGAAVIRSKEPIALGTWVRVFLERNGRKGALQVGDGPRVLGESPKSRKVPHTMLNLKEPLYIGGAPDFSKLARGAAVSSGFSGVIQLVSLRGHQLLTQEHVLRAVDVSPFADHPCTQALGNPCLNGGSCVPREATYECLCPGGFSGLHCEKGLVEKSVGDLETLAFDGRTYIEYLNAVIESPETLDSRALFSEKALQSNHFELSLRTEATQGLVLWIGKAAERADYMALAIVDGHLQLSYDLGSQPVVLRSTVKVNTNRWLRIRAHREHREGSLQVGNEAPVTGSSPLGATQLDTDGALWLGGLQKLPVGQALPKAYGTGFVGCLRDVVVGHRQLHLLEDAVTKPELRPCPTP

How the values were obtained:
[1] = target: α3 subunit of the Na+/K+-ATPase, endogenous on mouse cells (cortical neurons, cortical slices, cardiac myocytes) (mouse) (UniProt Q6PIC6); test: BS3 cross-linking of cultured cortical neurons and cortical slices, immunoprecipitation, immunoblot for α3
[2] = target: α3 subunit of the Na+/K+-ATPase, endogenous on mouse cells (cortical neurons, cortical slices, cardiac myocytes) (mouse) (UniProt Q6PIC6); test: BS3 cross-linking, immunoprecipitation with agrin or α3 antibodies, immunoblot for α3
[3] = target: α3 subunit of the Na+/K+-ATPase, endogenous on mouse cells (cortical neurons, cortical slices, cardiac myocytes) (mouse) (UniProt Q6PIC6); test: competition against His-tagged short mouse agrin fragments on live cortical neurons, immunofluorescence
[4] = target: α3 subunit of the Na+/K+-ATPase, endogenous on mouse cells (cortical neurons, cortical slices, cardiac myocytes) (mouse) (UniProt Q6PIC6); test: competition at 500-fold molar excess against His-tagged short mouse agrin fragments on live cortical neurons

Row | Substance | binding [1] | binding [2] | binding [3] | binding [4]
1 | endogenous (native) agrin of mouse cortical neurons and cortex (from UniProt A2ASQ1 1-1950) (ligand) | binds | binds | – | –
2 | rC-Agy4z8, soluble 95-kD COOH-terminal fragment of rat agrin, y4 z8 (from UniProt P25304 1153-1951) (ligand) | – | – | binds | binds
